From patent US20050037335A1, “Method for identifying novel transcriptional regulatory proteins” (priority 1999, published 2005)
For at least one compound, name, drawing or mass did not settle the structure.

The chains behind the UniProt entries cited, without tags or fusion partners. A line that says so, or that is headed by a name, gives the form on record, which may keep a tag or linker.
UniProt P04483, other isoform, or with tags, fused parts or gaps L170V: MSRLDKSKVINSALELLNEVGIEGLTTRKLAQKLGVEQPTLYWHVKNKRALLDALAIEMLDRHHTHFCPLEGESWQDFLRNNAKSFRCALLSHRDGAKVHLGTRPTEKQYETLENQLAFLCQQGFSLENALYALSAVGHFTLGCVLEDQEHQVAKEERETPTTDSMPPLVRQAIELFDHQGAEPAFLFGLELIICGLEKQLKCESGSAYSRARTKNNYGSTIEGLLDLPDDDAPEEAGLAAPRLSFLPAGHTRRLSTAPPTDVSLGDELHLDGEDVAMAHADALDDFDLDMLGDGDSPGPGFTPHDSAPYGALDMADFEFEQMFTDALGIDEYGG

Target: T1, tTA-45 (L170V) (Escherichia coli, UniProt P04483, L170V)
T1 construct: expressed in transfected cells; host or cells: HeLa cells, transient transfection
Assay: Inducer-dependent repression of luciferase activity by tTA-45, transient transfection in HeLa cells
Format: cell-based
Details: mutant tTA-45 compared with tTA
Experimental: One mutant that was isolated from this screen, tTA-45, was sequenced and found to carry an amino acid exchange at position 170 from a leucine to a valine (L170V). The induction efficiency of tTA-45 in response to varying concentrations of Tc or Dox was determined in transient transfection assays in HeLa cells. The inducer concentration leading to 50% repression of the luciferase activity (IC50) was determined and is described in Table 3 below.

C[C@H]1c2cccc(O)c2C(=O)C2=C(O)[C@]3(O)C(=O)C(C(N)=O)=C(O)[C@@H](N(C)C)[C@@H]3[C@@H](O)[C@@H]21 [Dox, doxycycline]
fold less sensitive (tTA-45 versus tTA): about 10 fold

CN(C)[C@@H]1C(O)=C(C(N)=O)C(=O)[C@@]2(O)C(O)=C3C(=O)c4c(O)cccc4[C@@](C)(O)[C@H]3C[C@@H]12 [Tc, tetracycline]
fold less sensitive (tTA-45 versus tTA): 100 fold
